# Source: PMC10427235
# Chains of the proteins cited; added tags and fusions are not shown.
# UniProt Q9Y572: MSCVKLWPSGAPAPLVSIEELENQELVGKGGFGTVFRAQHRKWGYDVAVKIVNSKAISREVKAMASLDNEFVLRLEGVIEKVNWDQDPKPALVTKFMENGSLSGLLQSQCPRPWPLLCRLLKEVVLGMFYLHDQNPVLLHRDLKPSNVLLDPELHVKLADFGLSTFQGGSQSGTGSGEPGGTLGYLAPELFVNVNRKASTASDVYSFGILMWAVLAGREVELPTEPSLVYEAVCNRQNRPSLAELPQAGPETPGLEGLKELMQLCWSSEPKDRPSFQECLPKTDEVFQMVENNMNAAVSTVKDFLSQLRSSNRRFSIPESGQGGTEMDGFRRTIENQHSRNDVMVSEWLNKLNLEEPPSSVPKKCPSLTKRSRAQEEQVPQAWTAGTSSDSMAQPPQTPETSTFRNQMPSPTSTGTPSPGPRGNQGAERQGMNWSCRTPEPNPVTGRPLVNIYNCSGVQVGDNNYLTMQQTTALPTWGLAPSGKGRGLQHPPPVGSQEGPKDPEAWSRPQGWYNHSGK
# UniProt Q13546: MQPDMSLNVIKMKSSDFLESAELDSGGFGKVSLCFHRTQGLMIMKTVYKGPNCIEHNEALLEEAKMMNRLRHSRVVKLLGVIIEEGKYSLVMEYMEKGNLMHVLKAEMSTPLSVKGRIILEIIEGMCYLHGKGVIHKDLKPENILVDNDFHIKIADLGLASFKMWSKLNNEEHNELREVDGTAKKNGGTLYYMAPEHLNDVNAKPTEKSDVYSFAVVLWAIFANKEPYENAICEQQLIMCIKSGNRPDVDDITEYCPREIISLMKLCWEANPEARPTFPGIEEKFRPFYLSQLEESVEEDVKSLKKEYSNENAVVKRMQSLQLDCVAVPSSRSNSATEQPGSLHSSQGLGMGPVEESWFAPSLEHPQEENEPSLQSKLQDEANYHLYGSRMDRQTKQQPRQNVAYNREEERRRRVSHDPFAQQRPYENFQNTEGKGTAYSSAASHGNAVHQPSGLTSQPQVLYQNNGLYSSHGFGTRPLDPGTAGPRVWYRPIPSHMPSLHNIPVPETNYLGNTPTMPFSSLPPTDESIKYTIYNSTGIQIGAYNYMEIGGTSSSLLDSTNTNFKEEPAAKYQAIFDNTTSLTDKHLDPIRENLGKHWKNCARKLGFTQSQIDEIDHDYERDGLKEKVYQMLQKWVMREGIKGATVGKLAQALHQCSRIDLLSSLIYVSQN
# These are yes or no findings as the source states them, for the method shown. Binding seen in cells or lysates may run through a third protein. Some binding calls cover weakened binding; strength is not graded here.
# Biological target: receptor-interacting protein kinase 3 (human (endogenous in AGS and HGC27)) (UniProt Q9Y572)
# Assay: co-IP; 5 ug anti-RIPK3 antibody with 1 mg lysate of AGS or HGC27 cells, untreated or treated with 2 uM gambogic acid for 24 h; 4°C overnight, protein A or G agarose beads, washed 3 times with lysis buffer (20 mM Hepes pH 7.4, 1% Triton X-100, 40 mM KCl); RIPK1, RIPK3, phospho-RIPK3 and MLKL detected by western blot
substance,measurement,value
receptor-interacting protein kinase 1 (from UniProt Q13546 1-671),binding,binds
